We go through eight molecules from patent US12729225B2, “Non-canonical SWI/SNF complex and uses thereof” (Dana-Farber Cancer Institute, Inc., priority 2018, dated 2026).

The chains are these.
B1: GNL3 (protein, UniProt Q9BVP2 1-549, looked up)
Guanine nucleotide-binding …: MKRPKLKKASKRMTCHKRYKIQKKVREHHRKLRKEAKKRGHKKPRKDPGVPNSAPFKEALLREAELRKQRLEELKQQQKLDRQKELEKKRKLETNPDIKPSNVEPMEKEFGLCKTENKAKSGKQNSKKLYCQELKKVIEASDVVLEVLDARDPLGCRCPQVEEAIVQSGQKKLVLILNKSDLVPKENLESWLNYLKKELPTVVFRASTKPKDKGKITKRVKAKKNAAPFRSEVCFGKEGLWKLLGGFQETCSKAIRVGVIGFPNVGKSSIINSLKQEQMCNVGVSMGLTRSMQVVPLDKQITIIDSPSFIVSPLNSSSALALRSPASIEVVKPMEAASAILSQADARQVVLKYTVPGYRNSLEFFTVLAQRRGMHQKGGIPNVEGAAKLLWSEWTGASLAYYCHPPTSWTPPPYFNESIVVDMKSGFNLEELEKNNAQSIRAIKGPHLANSILFQSSGLTNGIIEEKDIHEELPKRKERKQEEREDDKDSDQETVDEEVDENSSGMFAAEETGEALSEETTAGEQSTRSFILDKIIEEDDAYDFSTDYV
B2: PDS5A (protein, UniProt Q29RF7 1-1337, looked up)
Sister chromatid cohesion …: MDFTAQPKPATALCGVVSADGKIAYPPGVKEITDKITTDEMIKRLKMVVKTFMDMDQDSEDEKQQYLPLALHLASEFFLRNPNKDVRLLVACCLADIFRIYAPEAPYTSHDKLKDIFLFITRQLKGLEDTKSPQFNRYFYLLENLAWVKSYNICFELEDCNEIFIQLFRTLFSVINNSHNKKVQMHMLDLMSSIIMEGDGVTQELLDSILINLIPAHKNLNKQSFDLAKVLLKRTVQTIEACIANFFNQVLVLGRSSVSDLSEHVFDLIQELFAIDPHLLLSVMPQLEFKLKSNDGEERLAVVRLLAKLFGSKDSDLATQNRPLWQCFLGRFNDIHVPVRLESVKFASHCLMNHPDLAKDLTEYLKVRSHDPEEAIRHDVIVTIITAAKRDLALVNDQLLGFVRERTLDKRWRVRKEAMMGLAQLYKKYCLHGEAGKEAAEKVSWIKDKLLHIYYQNSIDDKLLVEKIFAQYLVPHNLETEERMKCLYYLYASLDPNAVKALNEMWKCQNMLRSHVRELLDLHKQPTSEANCSAMFGKLMTIAKNLPDPGKAQDFVKKFNQVLGDDEKLRSQLELLISPTCSCKQADICVREIARKLANPKQPTNPFLEMVKFLLERIAPVHIDSEAISALVKLMNKSIEGTADDEEEGVSPDTAIRSGLELLKVLSFTHPTSFHSAETYESLLQCLRMEDDKVAEAAIQIFRNTGHKIETDLPQIRSTLIPILHQKAKRGTPHQAKQAVHCIHAIFTNKEVQLAQIFEPLSRSLNADVPEQLITPLVSLGHISMLAPDQFASPMKSVVANFIVKDLLMNDRSTGEKNGKLWSPDEEVSPEVLAKVQAIKLLVRWLLGMKNNQSKSANSTLRLLSAMLVSEGDLTEQKRISKSDMSRLRLAAGSAIMKLAQEPCYHEIITPEQFQLCALVINDECYQVRQIFAQKLHKALVKLLLPLEYMAIFALCAKDPVKERRAHARQCLLKNISIRREYIKQNPMATEKLLSLLPEYVVPYMIHLLAHDPDFTRSQDVDQLRDIKECLWFMLEVLMTKNENNSHAFMKKMAENIKLTRDAQSPDESKTNEKLYTVCDVALCVINSKSALCNADSPKDPVLPMKFFTQPEKDFCNDKSYISEETRVLLLTGKPKPAGVLGAVNKPLSATGRKPYVRSTGTETGSNINVNSELNPSTGNRSREQSSEAAETGVSENEENPVRIISVTPVKNIDPVKNKEINSDQATQGNISSDRGKKRTVTAAGAENIQQKTDEKVDESGPPAPSKPRRGRRPKSESQGNATKNDDLNKPINKGRKRAAVGQESPGGLEAGNAKAPKLQDLAKKAAPAERQIDLQR
B3: MTPAP (protein, UniProt Q9NVV4 38-582, looked up)
Poly(A) RNA polymerase, …: KDLRRDEQPSGSVETGFEDKIPKRRFSEMQNERREQAQRTVLIHCPEKISENKFLKYLSQFGPINNHFFYESFGLYAVVEFCQKESIGSLQNGTHTPSTAMETAIPFRSRFFNLKLKNQTSERSRVRSSNQLPRSNKQLFELLCYAESIDDQLNTLLKEFQLTEENTKLRYLTCSLIEDMAAAYFPDCIVRPFGSSVNTFGKLGCDLDMFLDLDETRNLSAHKISGNFLMEFQVKNVPSERIATQKILSVLGECLDHFGPGCVGVQKILNARCPLVRFSHQASGFQCDLTTNNRIALTSSELLYIYGALDSRVRALVFSVRCWARAHSLTSSIPGAWITNFSLTMMVIFFLQRRSPPILPTLDSLKTLADAEDKCVIEGNNCTFVRDLSRIKPSQNTETLELLLKEFFEYFGNFAFDKNSINIRQGREQNKPDSSPLYIQNPFETSLNISKNVSQSQLQKFVDLARESAWILQQEDTDRPSISSNRPWGLVSLLLPSAPNRKSFTKKKSNKFAIETVKNLLESLKGNRTENFTKTSGKRTISTQT
B4: TMLHE (protein, UniProt Q9NVH6 16-421, looked up)
Trimethyllysine dioxygenase, …: LLKGGVIYPALPQPNFKSLLPLAVHWHHTASKSLTCAWQQHEDHFELKYANTVMRFDYVWLRDHCRSASCYNSKTHQRSLDTASVDLCIKPKTIRLDETTLFFTWPDGHVTKYDLNWLVKNSYEGQKQKVIQPRILWNAEIYQQAQVPSVDCQSFLETNEGLKKFLQNFLLYGIAFVENVPPTQEHTEKLAERISLIRETIYGRMWYFTSDFSRGDTAYTKLALDRHTDTTYFQEPCGIQVFHCLKHEGTGGRTLLVDGFYAAEQVLQKAPEEFELLSKVPLKHEYIEDVGECHNHMIGIGPVLNIYPWNKELYLIRYNNYDRAVINTVPYDVVHRWYTAHRTLTIELRRPENEFWVKLKPGRVLFIDNWRVLHGRECFTGYRQLCGCYLTRDDVLNTARLLGLQA
B5: ZMPSTE24 (protein, UniProt O75844 1-475, looked up)
CAAX prenyl protease 1 homolog: MGMWASLDALWEMPAEKRIFGAVLLFSWTVYLWETFLAQRQRRIYKTTTHVPPELGQIMDSETFEKSRLYQLDKSTFSFWSGLYSETEGTLILLFGGIPYLWRLSGRFCGYAGFGPEYEITQSLVFLLLATLFSALTGLPWSLYNTFVIEEKHGFNQQTLGFFMKDAIKKFVVTQCILLPVSSLLLYIIKIGGDYFFIYAWLFTLVVSLVLVTIYADYIAPLFDKFTPLPEGKLKEEIEVMAKSIDFPLTKVYVVEGSKRSSHSNAYFYGFFKNKRIVLFDTLLEEYSVLNKDIQEDSGMEPRNEEEGNSEEIKAKVKNKKQGCKNEEVLAVLGHELGHWKLGHTVKNIIISQMNSFLCFFLFAVLIGRKELFAAFGFYDSQPTLIGLLIIFQFIFSPYNEVLSFCLTVLSRRFEFQADAFAKKLGKAKDLYSALIKLNKDNLGFPVSDWLFSMWHYSHPPLLERLQALKTMKQH
B6: IPO5 (protein, UniProt O00410 2-1097, looked up)
Importin-5: AAAAAEQQQFYLLLGNLLSPDNVVRKQAEETYENIPGQSKITFLLQAIRNTTAAEEARQMAAVLLRRLLSSAFDEVYPALPSDVQTAIKSELLMIIQMETQSSMRKKVCDIAAELARNLIDEDGNNQWPEGLKFLFDSVSSQNVGLREAALHIFWNFPGIFGNQQQHYLDVIKRMLVQCMQDQEHPSIRTLSARATAAFILANEHNVALFKHFADLLPGFLQAVNDSCYQNDDSVLKSLVEIADTVPKYLRPHLEATLQLSLKLCGDTSLNNMQRQLALEVIVTLSETAAAMLRKHTNIVAQTIPQMLAMMVDLEEDEDWANADELEDDDFDSNAVAGESALDRMACGLGGKLVLPMIKEHIMQMLQNPDWKYRHAGLMALSAIGEGCHQQMEGILNEIVNFVLLFLQDPHPRVRYAACNAVGQMATDFAPGFQKKFHEKVIAALLQTMEDQGNQRVQAHAAAALINFTEDCPKSLLIPYLDNLVKHLHSIMVLKLQELIQKGTKLVLEQVVTSIASVADTAEEKFVPYYDLFMPSLKHIVENAVQKELRLLRGKTIECISLIGLAVGKEKFMQDASDVMQLLLKTQTDFNDMEDDDPQISYMISAWARMCKILGKEFQQYLPVVMGPLMKTASIKPEVALLDTQDMENMSDDDGWEFVNLGDQQSFGIKTAGLEEKSTACQMLVCYAKELKEGFVEYTEQVVKLMVPLLKFYFHDGVRVAAAESMPLLLECARVRGPEYLTQMWHFMCDALIKAIGTEPDSDVLSEIMHSFAKCIEVMGDGCLNNEHFEELGGILKAKLEEHFKNQELRQVKRQDEDYDEQVEESLQDEDDNDVYILTKVSDILHSIFSSYKEKVLPWFEQLLPLIVNLICPHRPWPDRQWGLCIFDDVIEHCSPASFKYAEYFLRPMLQYVCDNSPEVRQAAAYGLGVMAQYGGDNYRPFCTEALPLLVRVIQSADSKTKENVNATENCISAVGKIMKFKPDCVNVEEVLPHWLSWLPLHEDKEEAVQTFNYLCDLIESNHPIVLGPNNTNLPKIFSIIAEGEMHEAIKHEDPCAKRLANVVRQVQTSGGLWTECIAQLSPEQQAAIQELLNSA
B7: SLC38A2 (protein, UniProt Q96QD8 1-506, looked up)
Sodium-coupled neutral amino …: MKKAEMGRFSISPDEDSSSYSSNSDFNYSYPTKQAALKSHYADVDPENQNFLLESNLGKKKYETEFHPGTTSFGMSVFNLSNAIVGSGILGLSYAMANTGIALFIILLTFVSIFSLYSVHLLLKTANEGGSLLYEQLGYKAFGLVGKLAASGSITMQNIGAMSSYLFIVKYELPLVIQALTNIEDKTGLWYLNGNYLVLLVSLVVILPLSLFRNLGYLGYTSGLSLLCMVFFLIVVICKKFQVPCPVEAALIINETINTTLTQPTALVPALSHNVTENDSCRPHYFIFNSQTVYAVPILIFSFVCHPAVLPIYEELKDRSRRRMMNVSKISFFAMFLMYLLAALFGYLTFYEHVESELLHTYSSILGTDILLLIVRLAVLMAVTLTVPVVIFPIRSSVTHLLCASKDFSWWRHSLITVSILAFTNLLVIFVPTIRDIFGFIGASAASMLIFILPSAFYIKLVKKEPMKSVQKIGALFFLLSGVLVMTGSMALIVLDWVHNAPGGGH
B8: RBMX (protein, UniProt P38159 1-391, looked up)
RNA-binding motif protein, X …: MVEADRPGKLFIGGLNTETNEKALEAVFGKYGRIVEVLLMKDRETNKSRGFAFVTFESPADAKDAARDMNGKSLDGKAIKVEQATKPSFESGRRGPPPPPRSRGPPRGLRGGRGGSGGTRGPPSRGGHMDDGGYSMNFNMSSSRGPLPVKRGPPPRSGGPPPKRSAPSGPVRSSSGMGGRAPVSRGRDSYGGPPRREPLPSRRDVYLSPRDDGYSTKDSYSSRDYPSSRDTRDYAPPPRDYTYRDYGHSSSRDDYPSRGYSDRDGYGRDRDYSDHPSGGSYRDSYESYGNSRSAPPTRGPPPSYGGSSRYDDYSSSRDGYGGSRDSYSSSRSDLYSSGRDRVGRQERGLPPSMERGYPPPRDSYSSSSRGAPRGGGRGGSRSDRGGGRSRY

In one data set the test system is mSWI/SNF complexes. The experiment in a line: mSWI/SNF complex purification with HA-tagged baits and mass spectrometry (peptide counts). Details: species or system human. Conditions: 293_HA-BRD7: HA-BRD7 bait purification, total peptide count per co-purified protein.
B1 gave a Total of 17.

Staying with this data set, now noted: 293_HA-BRD7: HA-BRD7 bait purification, unique peptide count per co-purified protein.
The molecule B1 returned a Unique of 15.

Staying with this data set, now noted: 293_HA-BRD7 bait purification, mass spectrometry; total peptides per co-purified protein.
The molecule B2 displayed a Total of 1.

B3 had a Total of 1.

With B4, the Total is 1.

For B5, the Total is recorded as 1.

The molecule B6 displayed a Total of 1.

B7: the Total amounted to 1.

For B8, the Total amounted to 1.

The same data set, now with this note: 293_HA-BRD7 bait purification, mass spectrometry; unique peptides per co-purified protein.
Take B2: the Unique is on record as 1.

As for B3, the Unique was found to be 1.

For B4, the Unique worked out at 1.

For B5, the Unique stood at 1.

The molecule B6 yielded a Unique of 1.

B7 showed a Unique of 1.

Consider B8, for which the Unique came out at 1.
